Measurements reported in PubChem BioAssay AID1159578 (Peter MacCallum Cancer Centre, 2015)
Shown is an unselected part of about 18,000 reagents tested. About 1,030 of all reagents (5.7%) count as active. 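Inactive calls also include pools with fewer than 3300 nuclei, whose migration was not assessed.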 Raw values vary from plate to plate and are shown uncorrected. A number with no mark means an inactive call.

- Screen: 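Genome-wide hunt for genes controlling movement of lymphatic endothelial cells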 (primary screen)
- System: human lymphatic endothelial cells
- Knock-down reagent: siRNA pool against human genes, 40 nM
- Timing: 48 h after transfection
- Read-out: 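Cells stained with dye and imaged after a scratch; covered wound area and nuclei counted, duplicates averaged, migration set against mock wells and turned into a robust z-score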
- Scale: migration robust z-score: higher = faster migration into the scratch; migration relative to mock: higher = more scratch area covered than mock; nuclei per well: higher = more cells in the well
- Hit rule: 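Pools averaging fewer than 3300 nuclei are never called; remaining pools count as changed when migration robust z lies outside -2 to 2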
- Meaning of the calls: active = migration changed; inactive = no migration change, or too few cells

no.	gene	migration robust z-score	migration class with cell-count check	migration relative to mock	nuclei per well, duplicate mean
1	TPGS1	-0.35	migration z between -2 and 2; enough cells	0.8	5393
2	BTN2A2	0.56	migration z between -2 and 2; enough cells	1.03	5746
3	CCDC74B	-2.25 (active)	migration z below -2; enough cells	0.29	3751
4	TMC4	-0.92	migration z between -2 and 2; enough cells	0.64	5733
5	CAPZA1	2.17 (active)	migration z above 2; enough cells	1.45	5741
6	HAO2	-0.26	migration z between -2 and 2; enough cells	0.82	5779
7	ZEB1	-1.03	migration z between -2 and 2; enough cells	0.6	5926
8	BAX	0.75	migration z between -2 and 2; enough cells	1.08	5954
9	LOC389834	-0.34	migration z between -2 and 2; enough cells	0.8	5270
10	CHODL	0.73	migration z between -2 and 2; enough cells	1.08	5738
11	RC3H1	-1.22	migration z between -2 and 2; enough cells	0.57	4938
12	CATSPERD	0.02	migration z between -2 and 2; enough cells	0.89	5564
13	PPDPF	-1.19	migration z between -2 and 2; enough cells	0.58	5340
14	PHPT1	-1.19	migration z between -2 and 2; enough cells	0.57	4692
15	MAGI3	-0.99	migration z between -2 and 2; enough cells	0.62	4612
16	ART4	0.34	migration z between -2 and 2; enough cells	0.87	6044
17	CFAP36	-0.65	migration z between -2 and 2; enough cells	0.72	4873
18	DUSP13B	0.05	migration z between -2 and 2; enough cells	0.82	4850
19	VPS8	0.78	migration z between -2 and 2; enough cells	0.96	5454
20	HMG20B	1.4	migration z between -2 and 2; enough cells	1.08	4840
21	GRM2	0.08	migration z between -2 and 2; enough cells	0.82	5364
22	CAMK4	-0.08	migration z between -2 and 2; enough cells	0.79	5428
23	PAN3	-0.64	migration z between -2 and 2; enough cells	0.72	5732
24	MAPKAPK3	-1.27	migration z between -2 and 2; enough cells	0.56	4414
25	SCNN1D	-0.44	migration z between -2 and 2; enough cells	0.72	6552
26	ZNF256	0.66	migration z between -2 and 2; enough cells	1.06	6135
27	BHMT	0.68	migration z between -2 and 2; enough cells	0.94	5452
28	LAMTOR1	-0.16	migration z between -2 and 2; enough cells	0.84	6030
29	ANKHD1	1.92	migration z between -2 and 2; enough cells	1.38	4168
30	KRT8	0.34	migration z between -2 and 2; enough cells	0.98	6142
31	PMP2	-0.2	migration z between -2 and 2; enough cells	0.83	8490
32	ADGRF2P	-1.48	migration z between -2 and 2; enough cells	0.52	5400
33	ST6GALNAC3	1.29	migration z between -2 and 2; enough cells	1.05	4589
34	TCF12	-2.02 (active)	migration z below -2; enough cells	0.42	5166
35	EPS8	0.83	migration z between -2 and 2; enough cells	0.97	5842
36	MTHFR	-1.25	migration z between -2 and 2; enough cells	0.56	6448
37	SP140L	0.23	migration z between -2 and 2; enough cells	0.94	6536
38	OR52B6	-0.69	migration z between -2 and 2; enough cells	0.71	5392
39	KIN	-0.94	migration z between -2 and 2; enough cells	0.64	4506

Records listed so far whose gene name starts with C or c (6):
gene	migration robust z-score	migration class with cell-count check	migration relative to mock	nuclei per well, duplicate mean
CCDC74B	-2.25 (active)	migration z below -2; enough cells	0.29	3751
CAPZA1	2.17 (active)	migration z above 2; enough cells	1.45	5741
CHODL	0.73	migration z between -2 and 2; enough cells	1.08	5738
CATSPERD	0.02	migration z between -2 and 2; enough cells	0.89	5564
CFAP36	-0.65	migration z between -2 and 2; enough cells	0.72	4873
CAMK4	-0.08	migration z between -2 and 2; enough cells	0.79	5428
